Data taken from article PMC6465387.
Results are given in words; binding and its absence hold for the method and conditions named. Binding seen in cells or lysates may run through a third protein. A result given as binding can be weak or reduced; the word gives no strength. Where a sequence is shown, tags or fusion partners need not be part of it.

Sequences of proteins named here, by UniProt entry; tags and fusion partners are left off. A change or cut given only in a name is not applied to a line headed by its entry.
UniProt B7EQ08: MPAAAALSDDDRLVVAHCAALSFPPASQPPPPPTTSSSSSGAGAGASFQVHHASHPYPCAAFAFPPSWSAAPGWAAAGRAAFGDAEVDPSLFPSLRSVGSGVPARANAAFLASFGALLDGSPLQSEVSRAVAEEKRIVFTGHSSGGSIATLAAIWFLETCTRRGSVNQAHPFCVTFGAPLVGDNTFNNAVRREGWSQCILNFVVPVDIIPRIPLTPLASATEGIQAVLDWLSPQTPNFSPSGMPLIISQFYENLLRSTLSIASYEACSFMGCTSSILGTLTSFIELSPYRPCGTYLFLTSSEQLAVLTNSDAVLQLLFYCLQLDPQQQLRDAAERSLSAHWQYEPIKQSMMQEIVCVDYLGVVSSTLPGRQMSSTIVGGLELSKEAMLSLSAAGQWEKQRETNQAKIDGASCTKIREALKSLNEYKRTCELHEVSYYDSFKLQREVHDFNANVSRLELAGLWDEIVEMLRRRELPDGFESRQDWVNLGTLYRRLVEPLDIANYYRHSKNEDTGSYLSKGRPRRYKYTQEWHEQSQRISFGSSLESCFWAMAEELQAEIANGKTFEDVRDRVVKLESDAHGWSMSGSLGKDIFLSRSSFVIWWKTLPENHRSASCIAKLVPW

Target: T1, AtPAD4-nYFP (Arabidopsis (Col-0)) (UniProt Q9S745)
T1 sequence: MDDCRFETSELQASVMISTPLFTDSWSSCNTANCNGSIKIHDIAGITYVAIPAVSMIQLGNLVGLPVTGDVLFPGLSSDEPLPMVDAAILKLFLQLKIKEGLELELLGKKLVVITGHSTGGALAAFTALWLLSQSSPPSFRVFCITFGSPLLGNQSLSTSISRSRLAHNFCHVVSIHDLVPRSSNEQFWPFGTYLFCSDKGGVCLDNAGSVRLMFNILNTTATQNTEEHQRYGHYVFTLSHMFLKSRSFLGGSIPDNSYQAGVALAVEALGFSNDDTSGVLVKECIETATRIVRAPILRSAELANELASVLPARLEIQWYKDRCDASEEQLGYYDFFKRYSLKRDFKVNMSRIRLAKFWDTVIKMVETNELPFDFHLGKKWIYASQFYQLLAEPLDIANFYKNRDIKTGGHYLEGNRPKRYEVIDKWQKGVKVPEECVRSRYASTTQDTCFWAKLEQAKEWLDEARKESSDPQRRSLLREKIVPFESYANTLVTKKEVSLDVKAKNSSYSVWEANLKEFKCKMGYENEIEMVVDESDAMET
Assay: split reporter; BiFC in rice variety Zhonghua 11 stem protoplasts co-transformed with nYFP and cYFP constructs; confocal microscopy

binding: binds
Substance: OsEDS1-cYFP (from UniProt B7EQ08)
